According to PubChem BioAssay AID504444 (National Center for Advancing Translational Sciences (NCATS), 2011):
Hit rate of the full screen: of about 360,000 compounds, about 7,500 (2.1%) were called active. Inconclusive results, whose numbers are uncertain, are shown with a selection of clear calls. Calls follow the shape of the dose curve; as a rule, active = well fitted inhibition curve with a large enough effect; inconclusive = small, poorly fitted or top-dose-only effect, or effect the other way; inactive = flat fitted curve, though single readings scatter. Potencies of inconclusive entries are doubtful fits and often do not repeat.

Assay: Nrf2 qHTS screen for inhibitors; also: nearly all actives have a fitted effect of over 60% in size
Conditions: A549 ARE-Fluc reporter, luciferase luminescence, 18-24 h; activity change, negative = inhibition: at 46 µM (top of the series)
Method in brief: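 Quantitative HTS in A549 cells stably bearing an antioxidant response element-firefly luciferase construct. Inhibition of Nrf2-driven transcription was scored by luminescence after 18-24 h of compound exposure at 37 °C.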
% is scaled to controls: 0 for no effect and ±100 for the full control effect; potency is read from the fitted curve at half-maximal effect.

SMILES	activity change, negative = inhibition	Potency
C=CCOc1ccc(C2NC(=O)c3ccccc3O2)cc1OCC (configuration not stated)	inactive: -2.87%	
C/C(=N\OCc1ccc(C#N)cc1)c1ccc(S(=O)(=O)N(C)C)cc1		inconclusive: 29.1 µM [falling, single point]
Cc1ccc(C)c(OCC(=O)NCC(C)(C)N2CCOCC2)c1		inconclusive: 18.4 µM [falling, partial curve, poor fit]
COCCCNc1nc2c(S(=O)(=O)c3ccc(C)c(C)c3)nnn2c2ccc(Cl)cc12	inactive: -6.73%	
Cc1ccc(NC(=O)C2CCN(c3ncnc4c3nc3n4CCCCC3)CC2)nc1		inconclusive: 25.9 µM [falling, single point]
CSc1ncc(C(=O)Nc2ccc(F)cc2F)c(-c2ccccc2)n1		inconclusive: 13 µM [activator, single point]
COc1ccc(-n2nc3c(c2NC(=O)CCCCl)CSC3)cc1		inconclusive: 29.1 µM [activator, partial curve, poor fit]
COC(C(=O)N1CCC(CCC(=O)Nc2ccccc2)CC1)c1ccccc1 (configuration not stated)		inconclusive: 13 µM [activator, partial curve]
O=C(Nn1cnc2ccccc2c1=O)c1ccc(F)cc1Cl		inconclusive: 5.17 µM [activator, partial curve]
Cc1ccc2oc(=O)c(/C=C(\O)c3ccco3)nc2c1		inconclusive: 29.1 µM [falling, partial curve, poor fit]
CCOC(=O)c1ccccc1NC1CC(=O)N(c2ccccc2C)C1=O (configuration not stated)		inconclusive: 0.58 µM [falling, partial curve, poor fit]
C[C@H](CO)N1C[C@H](C)[C@@H](CN(C)S(=O)(=O)c2ccccc2)Oc2c(NC(=O)Nc3ccc4c(c3)OCO4)cccc2C1=O	inactive: -3.48%	
CSc1nnc(-c2ccco2)n1-c1ccccc1		inconclusive: 18.4 µM [activator, partial curve, poor fit]
O=C1NC(=O)C2(CCCC2C(=O)O)N1 (configuration not stated)	inactive: 6.22%	
CCOC(=O)c1c(C)[nH]c(C)c1S(=O)(=O)N1CCC(C(=O)Nc2ccc(C)cn2)CC1		inconclusive: 18.4 µM [falling, single point]
COc1cccc(NC(=O)CN(C)C(=O)c2c(-c3ccccc3)noc2C)c1		inconclusive: 23.1 µM [falling, partial curve, poor fit]
COc1ccc(C2c3c(ncn(CCc4ccccc4)c3=N)Oc3ccc4ccccc4c32)cc1OC (configuration not stated)	inactive: -6.42%	
CCOC(=O)c1cc(-c2ccccc2)nc2ccc(C)cc12		inconclusive: 29.1 µM [falling, single point]
Cc1ccc(S(=O)(=O)N2CCC(=O)N(C(COCc3cccc(C(F)(F)F)c3)C(C)C)CC2)cc1 (configuration not stated)		inconclusive: 29.1 µM [falling, single point]
CC(NC(=O)Nc1ccc(Cl)c(Cl)c1)C(c1ccccc1)N1CCOCC1 (configuration not stated)		inconclusive: 20.6 µM [falling, single point]
O=C(c1ccc(CSc2nc3ccncc3n2Cc2cccc(F)c2)cc1)N1CCCCC1		active: 23.1 µM
Cc1sc(NC(=O)Cn2[nH]c(=O)c3ccccc3c2=O)nc1-c1ccccc1		active: 16.4 µM
O=C(CCl)Nc1cccc(S(=O)(=O)NC2=NCCC2)c1	inactive: -3.22%	

SMILES	activity change, negative = inhibition	Potency
Cc1ccc(Cl)cc1N1CCN(C(=O)c2cc3c(=O)[nH]c4ccccc4c3n2C)CC1		active: 4.11 µM
Cc1ccc(CSC2=NS(=O)(=O)c3ccccc32)cc1	inactive: -24.3%	
COc1ccc(C2=NOC(C(=O)Nc3cccnc3)C2)cc1 (configuration not stated)		inconclusive: 1.84 µM [falling, partial curve, poor fit]
Cc1cccc(NC(=O)COc2coc(CN3CCc4ccccc4C3)cc2=O)c1		inconclusive: 10.3 µM [falling, partial curve]
CN1c2ccccc2C(C)(C)C12CC(c1ccc(S(=O)(=O)N3CCCCC3)cc1)=NO2 (configuration not stated)	inactive: 15.4%	
CC(=O)Nc1cccc(-c2cn3ccccc3n2)c1		inconclusive: 7.31 µM [activator, partial curve]
O=C(Nc1ccc(N2CCOCC2)cc1)c1cccc(S(=O)(=O)N2CCCC2)c1		inconclusive: 32.6 µM [falling, single point]
Cc1ccc2c(c1)nnn2C1CCN(S(=O)(=O)c2cccc(S(=O)(=O)N(C)C)c2)CC1		inconclusive: 29.1 µM [falling, single point]
CCOc1ccc(CCNC(=O)c2cn(CC)c3ccc(S(=O)(=O)N4CCCCCC4)cc3c2=O)cc1OCC		inconclusive: 32.6 µM [falling, single point]
O=C(Nc1ccccc1)Nc1cc(Cl)cc(Cl)c1		inconclusive: 20.6 µM [falling, single point]
O=C(c1ccco1)N(CCC(c1ccccc1)c1ccco1)Cc1ccc(F)cc1 (configuration not stated)		inconclusive: 29.1 µM [falling, single point]
CCn1c(SCC(=O)Nc2nonc2C)nnc1-c1ccco1	inactive: 3.42%	
COCCn1c(-c2ccc(OC)cc2)c(-c2ccc(OC)cc2)oc1=O		inconclusive: 32.6 µM [falling, partial curve, poor fit]
COC1(OC)N=C(N)C2(C#N)C(c3ccc4c(c3)OCO4)C12C#N (configuration not stated)		inconclusive: 23.1 µM [activator, single point]
O=C(CN1CCC(c2nc3ccccc3s2)CC1)NCc1ccccc1		inconclusive: 32.6 µM [falling, single point]
CCOC(=O)c1sc(NC(=O)CSc2n[nH]c(-c3ccccc3)n2)c(C#N)c1C		active: 23.1 µM
Clc1ccc(-c2nnc(-c3ccco3)o2)cc1		inconclusive: 29.1 µM [activator, single point]
COc1cccc(-c2cc(C(=O)N/N=C/c3ccco3)c3ccccc3n2)c1	inactive: -7.29%	
CCOC(=O)c1[nH]c(C)c(CN(CCc2ccccc2)S(C)(=O)=O)c1C		inconclusive: 29.1 µM [falling, single point]
O=C(/C=C/c1ccco1)c1ccc(NC(=O)C23CC4CC(CC(C4)C2)C3)cc1		inconclusive: 9.2 µM [falling, partial curve, poor fit]
Oc1c(N=Nc2ccccn2)ccc2ccccc12		inconclusive: 18.4 µM [falling, single point]
C=C(C)C1CC=C(C)C(=NNC(=O)c2ccncc2)C1 (configuration not stated)	inactive: -2.64%	
CCCCN1CC(c2nc3ccccc3n2CCCCOc2ccc(C)c(C)c2)CC1=O (configuration not stated)	inactive: 0.33%	

SMILES	activity change, negative = inhibition	Potency
COc1ccc(OC)c(NS(=O)(=O)c2ccc3[nH]c4c(c3c2)CCCCC4)c1		inconclusive: 18.4 µM [falling, single point]
COc1ccc(OC)c2c(C)cc(N3CCN(C(=O)c4ccc(Cl)cc4)CC3)nc12		inconclusive: 29.1 µM [falling, single point]
O=C(NC(NC(=S)Nc1ccc(Cl)cc1Cl)C(Cl)(Cl)Cl)c1cccc([N+](=O)[O-])c1 (configuration not stated)		inconclusive: 18.4 µM [falling, single point]
O=C(NCc1ccc2c(c1)OCO2)c1cc(COc2c(F)cccc2F)on1		inconclusive: 32.6 µM [falling, single point]
Oc1ccc(Nc2nc3ccccc3nc2Nc2ccc(O)cc2)cc1	inactive: -20.9%	
Cc1ccc(F)c(NC(=O)Nc2ccc3snnc3c2)c1	inactive: 0.576%	
Cc1ccccc1-n1c(=O)n(CCc2ccccc2)c(=O)c2[nH]cnc21		inconclusive: 0.0517 µM [falling, partial curve, poor fit]
CNS(=O)(=O)c1ccc2c3c(cccc13)C(=O)N2C		inconclusive: 18.4 µM [falling, single point]
CC(C)Oc1ccc(C(CCN)C2CCCCC2)cc1 (configuration not stated)		inconclusive: 18.4 µM [falling, single point]
CCC(=O)c1cc(F)c(N2CCN(S(=O)(=O)c3ccc(C)cc3)CC2)cc1C		inconclusive: 29.1 µM [falling, single point]
O=C(Nc1ccc2nc(-c3cccs3)[nH]c2c1)c1cccs1		inconclusive: 11.6 µM [falling, partial curve]
Cc1cccc(NC(=O)Cn2nnc(C(=O)Nc3ccccc3Br)c2N)c1C		inconclusive: 29.1 µM [activator, single point]
CC1CCc2c(sc(NC(=O)CSc3ncnc4c3cnn4-c3ccccc3Cl)c2C#N)C1 (configuration not stated)		inconclusive: 18.4 µM [falling, single point]
COc1ccc(S(=O)(=O)Nc2ccccc2OC)cc1NC(=O)c1cc2ccccc2oc1=O	inactive: 14%	
Cc1ccccc1C(C(=O)NC1CCCC1)N(C(=O)Cc1cccs1)c1ccc2c(c1)OCCO2 (configuration not stated)		inconclusive: 20.6 µM [falling, single point]
COc1cccc(-c2nc(CS(=O)(=O)CC(=O)Nc3c(C)cc(C)cc3C)c(C)o2)c1	inactive: -3.13%	
Oc1ccc(Cl)cc1/C=C/c1ccc2cccc(O)c2n1		inconclusive: 32.6 µM [activator, single point]
CC(C)(C)OC(=O)N1CCCC(C(=O)Nc2cccc(C(=O)NCc3ccccc3)c2)C1 (configuration not stated)		inconclusive: 23.1 µM [falling, partial curve, poor fit]
CCOC(=O)c1cc(-c2ccc(C)cc2)n(CCC(=O)Nc2ccc(C(C)C)cc2)c1C		inconclusive: 25.9 µM [falling, single point]
COc1ccc(OC)c(NC(=O)CN2CCc3ccccc3C2)c1		inconclusive: 18.4 µM [falling, single point]
COc1ccc(C2/C=C\CN(Cc3ccccc3)C(C)C(=O)N2Cc2ccc(F)cc2)cc1 (configuration not stated)		inconclusive: 18.4 µM [falling, single point]

Part of the list above in order of number of heavy atoms, high to low:
SMILES	activity change, negative = inhibition	Potency
COc1ccc(C2/C=C\CN(Cc3ccccc3)C(C)C(=O)N2Cc2ccc(F)cc2)cc1 (configuration not stated)		inconclusive: 18.4 µM [falling, single point]
COc1ccc(OC)c2c(C)cc(N3CCN(C(=O)c4ccc(Cl)cc4)CC3)nc12		inconclusive: 29.1 µM [falling, single point]
O=C(NC(NC(=S)Nc1ccc(Cl)cc1Cl)C(Cl)(Cl)Cl)c1cccc([N+](=O)[O-])c1 (configuration not stated)		inconclusive: 18.4 µM [falling, single point]

Quoted at random: 2 records from the list
SMILES	activity change, negative = inhibition	Potency
O=C(NCc1ccc2c(c1)OCO2)c1cc(COc2c(F)cccc2F)on1		inconclusive: 32.6 µM [falling, single point]
COc1cccc(-c2nc(CS(=O)(=O)CC(=O)Nc3c(C)cc(C)cc3C)c(C)o2)c1	inactive: -3.13%	
